The chains behind the UniProt entries cited, without tags or fusion partners.
UniProt Q86TM6: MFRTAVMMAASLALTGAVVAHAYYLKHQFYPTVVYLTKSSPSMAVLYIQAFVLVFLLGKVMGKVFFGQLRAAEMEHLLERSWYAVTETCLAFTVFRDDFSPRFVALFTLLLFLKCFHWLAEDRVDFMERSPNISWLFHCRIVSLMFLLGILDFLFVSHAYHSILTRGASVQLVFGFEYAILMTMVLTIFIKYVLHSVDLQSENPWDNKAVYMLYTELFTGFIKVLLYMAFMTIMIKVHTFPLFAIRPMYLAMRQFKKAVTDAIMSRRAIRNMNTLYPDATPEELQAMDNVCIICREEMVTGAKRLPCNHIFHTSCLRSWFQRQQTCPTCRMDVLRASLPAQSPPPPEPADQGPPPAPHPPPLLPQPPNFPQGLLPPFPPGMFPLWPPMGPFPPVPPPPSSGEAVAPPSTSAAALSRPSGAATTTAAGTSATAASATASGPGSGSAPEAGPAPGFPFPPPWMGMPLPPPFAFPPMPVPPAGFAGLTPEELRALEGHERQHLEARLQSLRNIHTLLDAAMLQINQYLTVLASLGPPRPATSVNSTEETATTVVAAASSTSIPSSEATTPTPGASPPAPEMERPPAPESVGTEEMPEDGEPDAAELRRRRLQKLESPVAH

According to paper PMC10879504:

Target: HMG-CoA reductase degradation protein 1 (HRD1), endogenous (human (endogenous in Caco-2)) (UniProt Q86TM6)
Assay: affinity purification with mass spectrometry; IP with anti-HRD1 antibody on Protein A/G magnetic beads from Caco-2 cells; SDS-PAGE with Coomassie staining, LC-MS/MS (Q Exactive HF-X, MaxQuant)

binding: binds
B1: transmembrane protein 2 (TMEM2), endogenous (protein, UniProt Q9UHN6 1-1383)
chain: MYATDSRGHSPAFLQPQNGNSRHPSGYVPGKVVPLRPPPPPKSQASAKFTSIRREDRATFAFSPEEQQAQRESQKQKRHKNTFICFAITSFSFFIALAIILGISSKYAPDENCPDQNPRLRNWDPGQDSAKQVVIKEGDMLRLTSDATVHSIVIQDGGLLVFGDNKDGSRNITLRTHYILIQDGGALHIGAEKCRYKSKATITLYGKSDEGESMPTFGKKFIGVEAGGTLELHGARKASWTLLARTLNSSGLPFGSYTFEKDFSRGLNVRVIDQDTAKILESERFDTHEYRNESRRLQEFLRFQDPGRIVAIAVGDSAAKSLLQGTIQMIQERLGSELIQGLGYRQAWALVGVIDGGSTSCNESVRNYENHSSGGKALAQREFYTVDGQKFSVTAYSEWIEGVSLSGFRVEVVDGVKLNLLDDVSSWKPGDQIVVASTDYSMYQAEEFTLLPCSECSHFQVKVKETPQFLHMGEIIDGVDMRAEVGILTRNIVIQGEVEDSCYAENQCQFFDYDTFGGHIMIMKNFTSVHLSYVELKHMGQQQMGRYPVHFHLCGDVDYKGGYRHATFVDGLSIHHSFSRCITVHGTNGLLIKDTIGFDTLGHCFFLEDGIEQRNTLFHNLGLLTKPGTLLPTDRNNSMCTTMRDKVFGNYIPVPATDCMAVSTFWIAHPNNNLINNAAAGSQDAGIWYLFHKEPTGESSGLQLLAKPELTPLGIFYNNRVHSNFKAGLFIDKGVKTTNSSAADPREYLCLDNSARFRPHQDANPEKPRVAALIDRLIAFKNNDNGAWVRGGDIIVQNSAFADNGIGLTFASDGSFPSDEGSSQEVSESLFVGESRNYGFQGGQNKYVGTGGIDQKPRTLPRNRTFPIRGFQIYDGPIHLTRSTFKKYVPTPDRYSSAIGFLMKNSWQITPRNNISLVKFGPHVSLNVFFGKPGPWFEDCEMDGDKNSIFHDIDGSVTGYKDAYVGRMDNYLIRHPSCVNVSKWNAVICSGTYAQVYVQTWSTQNLSMTITRDEYPSNPMVLRGINQKAAFPQYQPVVMLEKGYTIHWNGPAPRTTFLYLVNFNKNDWIRVGLCYPSNTSFQVTFGYLQRQNGSLSKIEEYEPVHSLEELQRKQSERKFYFDSSTGLLFLYLKAKSHRHGHSYCSSQGCERVKIQAATDSKDISNCMAKAYPQYYRKPSVVKRMPAMLTGLCQGCGTRQVVFTSDPHKSYLPVQFQSPDKAETQRGDPSVISVNGTDFTFRSAGVLLLVVDPCSVPFRLTEKTVFPLADVSRIEEYLKTGIPPRSIVLLSTRGEIKQLNISHLLVPLGLAKPAHLYDKGSTIFLGFSGNFKPSWTKLFTSPAGQGLGVLEQFIPLQLDEYGCPRATTVRRRDLELLKQASKAH

Results are given in words; binding and its absence hold for the method and conditions named. Binding seen in cells or lysates may run through a third protein. Here binding means that the protein was enriched with, or labelled near, the bait; the list need not be complete.
